Among the data in paper PMC9532395 are binding values, retold here.

The chains behind the UniProt entries cited, without tags or fusion partners.
UniProt O60260: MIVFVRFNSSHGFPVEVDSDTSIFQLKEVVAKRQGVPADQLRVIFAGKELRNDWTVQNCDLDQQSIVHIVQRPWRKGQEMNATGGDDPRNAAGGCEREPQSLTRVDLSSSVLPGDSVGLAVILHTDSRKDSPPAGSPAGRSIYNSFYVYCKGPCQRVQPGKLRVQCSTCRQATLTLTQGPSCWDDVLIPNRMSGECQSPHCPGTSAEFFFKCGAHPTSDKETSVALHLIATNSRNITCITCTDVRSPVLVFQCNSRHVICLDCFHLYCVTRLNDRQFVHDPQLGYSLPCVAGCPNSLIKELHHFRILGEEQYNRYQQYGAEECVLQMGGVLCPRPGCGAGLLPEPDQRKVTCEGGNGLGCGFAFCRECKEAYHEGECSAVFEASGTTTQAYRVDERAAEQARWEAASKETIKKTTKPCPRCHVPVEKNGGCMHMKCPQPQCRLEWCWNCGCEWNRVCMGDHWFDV
UniProt Q07812: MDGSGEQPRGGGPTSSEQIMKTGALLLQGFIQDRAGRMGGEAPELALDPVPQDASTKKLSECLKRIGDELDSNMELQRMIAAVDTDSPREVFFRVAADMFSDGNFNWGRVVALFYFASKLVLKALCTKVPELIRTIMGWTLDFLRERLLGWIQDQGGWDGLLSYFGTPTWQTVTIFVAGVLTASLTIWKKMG

No constants are given. Whether binding was seen depends on the method and setting. For part of these data: Binding seen in cells or lysates may run through a third protein. Some binding calls cover weakened binding; strength is not graded here. For part of these data: Sequences can lack the tags named with a protein.

Assay [1] addresses T1, GST-CRABP2 fusion protein (UniProt P29373).
T1 sequence: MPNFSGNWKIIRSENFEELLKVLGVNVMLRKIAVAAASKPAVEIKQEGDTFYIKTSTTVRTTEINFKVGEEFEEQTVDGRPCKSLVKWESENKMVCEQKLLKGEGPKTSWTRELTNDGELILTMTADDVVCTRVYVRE
Nature of the assay: pull-down; GST or GST-CRABP2 (50 μg/ml) on glutathione agarose beads incubated with BAX/PARKIN protein from E. coli at 4 °C for 6 h; washed 3 times with PBST; western blotting; both purified. A general note: A western blot detects proteins with antibodies after separation by electrophoresis.

The target of assay [2] is T2, Flag-CRABP2 (cellular retinoic acid binding protein 2) (UniProt P29373).
T2 sequence: T1 sequence
Nature of the assay: co-IP; Co-IP of Flag-CRABP2 with BAX/PARKIN, Protein A + G agarose, western blotting.

In assay [3] the target is T3, cellular retinoic acid binding protein 2 (endogenous) (human (endogenous in AGS)) (UniProt P29373).
T3 sequence: T1 sequence
Nature of the assay: co-IP; endogenous proteins, GC (AGS) cell lysate, Protein A + G agarose, IgG control, western blotting; also in cells transfected with sh-NC/sh-CRABP2/sh-BAX/sh-PRKN.

Assay [4] concerns the target E3 ubiquitin-protein ligase parkin (human (endogenous in AGS)) (UniProt O60260). Described as above.

As to “PARKIN protein (recombinant; 'GST-PARKIN fusion protein guided by 6×His') (from UniProt O60260 1-465)”, in assay [1], the binding result is reported as “binds”.
Consider “E3 ubiquitin-protein ligase parkin (from UniProt O60260 1-465)”, for which the binding result in assay [2] and in assay [3] was “binds” each time.
In the case of “apoptosis regulator BAX (from UniProt Q07812 1-192)”, the binding result in assay [2], in assay [4] and in assay [3] was “binds” throughout.
